{"sequences": {"note": "The chains behind the UniProt entries cited, without tags or fusion partners.", "UniProt P07355": "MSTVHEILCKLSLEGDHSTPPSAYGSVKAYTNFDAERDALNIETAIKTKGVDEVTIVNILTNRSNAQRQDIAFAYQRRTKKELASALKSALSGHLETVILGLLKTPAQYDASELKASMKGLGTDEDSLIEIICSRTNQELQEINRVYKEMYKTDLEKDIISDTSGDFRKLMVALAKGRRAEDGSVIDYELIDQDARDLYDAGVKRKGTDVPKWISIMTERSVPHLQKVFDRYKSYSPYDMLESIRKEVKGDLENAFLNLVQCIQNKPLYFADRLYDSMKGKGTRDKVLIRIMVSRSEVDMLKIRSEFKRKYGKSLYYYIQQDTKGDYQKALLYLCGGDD", "UniProt P19474": "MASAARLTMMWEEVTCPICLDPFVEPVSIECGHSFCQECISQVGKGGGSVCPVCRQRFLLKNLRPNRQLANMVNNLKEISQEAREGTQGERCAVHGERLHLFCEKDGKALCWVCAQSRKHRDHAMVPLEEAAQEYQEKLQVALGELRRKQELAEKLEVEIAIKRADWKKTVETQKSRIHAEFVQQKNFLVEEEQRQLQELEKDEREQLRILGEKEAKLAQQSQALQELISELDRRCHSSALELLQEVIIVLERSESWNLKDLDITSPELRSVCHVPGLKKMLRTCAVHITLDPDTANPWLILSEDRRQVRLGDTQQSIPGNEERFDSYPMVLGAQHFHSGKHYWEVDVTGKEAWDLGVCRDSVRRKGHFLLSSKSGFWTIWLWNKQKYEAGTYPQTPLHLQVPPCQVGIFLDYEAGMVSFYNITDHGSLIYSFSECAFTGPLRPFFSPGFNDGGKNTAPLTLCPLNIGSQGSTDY"}, "source": "paper PMC10899426", "target": "Annexin A2 (ANXA2) (human (endogenous in HUVECs)) (UniProt P07355)", "assay": "co-IP; endogenous proteins in HUVECs; Pierce Co-Immunoprecipitation Kit; immunoprecipitated with antibodies, then western blotting; IgG as negative control", "note": "No constants are given. Whether binding was seen depends on the method and setting. In cells and extracts the contact can be indirect. Some entries that bind do so weakly or less than the wild type.", "data": [{"substance": "tripartite motif-containing 21 (TRIM21) (from UniProt P19474 1-475)", "values": [{"measurement": "binding", "result": "binds"}]}]}
